In PMC12489471, “A multi-dentate, cooperative interaction between endo- and exo-ribonucleases within the bacterial RNA degradosome” (Nucleic Acids Research, 2025):
No constants are given. Whether binding was seen depends on the method and setting. Binding can be weak; no strength is given.

Molecular target: T1, S. enterica PNPase core (Salmonella enterica serovar Typhimurium) (UniProt Q8ZLT3)
T1 sequence: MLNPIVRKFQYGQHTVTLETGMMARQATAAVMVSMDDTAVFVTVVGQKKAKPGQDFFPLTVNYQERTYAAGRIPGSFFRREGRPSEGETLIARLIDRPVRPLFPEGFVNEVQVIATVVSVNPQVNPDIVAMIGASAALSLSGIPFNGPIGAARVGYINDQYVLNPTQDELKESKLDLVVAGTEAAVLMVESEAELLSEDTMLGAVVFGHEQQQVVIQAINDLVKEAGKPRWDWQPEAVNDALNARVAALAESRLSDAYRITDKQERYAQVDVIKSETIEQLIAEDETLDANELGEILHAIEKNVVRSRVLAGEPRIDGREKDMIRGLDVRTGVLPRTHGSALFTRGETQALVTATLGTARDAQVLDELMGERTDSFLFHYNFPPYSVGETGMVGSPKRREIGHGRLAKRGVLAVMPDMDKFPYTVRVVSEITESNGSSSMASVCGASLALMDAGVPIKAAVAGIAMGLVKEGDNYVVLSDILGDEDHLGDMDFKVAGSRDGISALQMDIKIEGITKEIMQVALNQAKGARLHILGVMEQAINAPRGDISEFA
Experiment: cryo-EM structure; purified PNPase core and RNase E-muGFP-CHis mixed 1:2, complex separated on Superdex 200 Increase in 20 mM Tris–HCl pH 8.0, 25 mM MgCl2, 150 mM KCl, 1 mM TCEP; 8 mM CHAPSO; E. coli and S. enterica proteins; both purified

binding: binds
Substance: S. enterica RNase E 921–1067-muGFP (Salmonella enterica serovar Typhimurium) (domain or fragment)
